In paper PMC11773556, “Neuromodulating Alkaloids from Millipede Defensive Secretions” (Journal of Natural Products, 2024):
pKi: −log10 of the molar value.

Sequences of proteins named here, by UniProt entry; tags and fusion partners are left off. A change or cut given only in a name is not applied to a line headed by its entry. Residues count along the entry.
UniProt P50406, whole entry: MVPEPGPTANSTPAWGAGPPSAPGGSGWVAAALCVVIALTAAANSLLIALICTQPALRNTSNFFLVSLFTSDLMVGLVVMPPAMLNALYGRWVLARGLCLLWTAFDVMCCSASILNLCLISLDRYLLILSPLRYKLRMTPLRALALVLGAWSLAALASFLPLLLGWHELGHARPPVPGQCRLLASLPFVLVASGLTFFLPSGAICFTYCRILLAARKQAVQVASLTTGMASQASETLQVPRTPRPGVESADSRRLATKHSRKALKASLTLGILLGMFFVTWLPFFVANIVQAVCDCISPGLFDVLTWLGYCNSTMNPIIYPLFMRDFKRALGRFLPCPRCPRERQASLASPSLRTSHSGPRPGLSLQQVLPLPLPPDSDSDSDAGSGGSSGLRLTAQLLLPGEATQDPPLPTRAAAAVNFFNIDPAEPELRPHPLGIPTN
UniProt P34969, 1-445 isoform P34969-2: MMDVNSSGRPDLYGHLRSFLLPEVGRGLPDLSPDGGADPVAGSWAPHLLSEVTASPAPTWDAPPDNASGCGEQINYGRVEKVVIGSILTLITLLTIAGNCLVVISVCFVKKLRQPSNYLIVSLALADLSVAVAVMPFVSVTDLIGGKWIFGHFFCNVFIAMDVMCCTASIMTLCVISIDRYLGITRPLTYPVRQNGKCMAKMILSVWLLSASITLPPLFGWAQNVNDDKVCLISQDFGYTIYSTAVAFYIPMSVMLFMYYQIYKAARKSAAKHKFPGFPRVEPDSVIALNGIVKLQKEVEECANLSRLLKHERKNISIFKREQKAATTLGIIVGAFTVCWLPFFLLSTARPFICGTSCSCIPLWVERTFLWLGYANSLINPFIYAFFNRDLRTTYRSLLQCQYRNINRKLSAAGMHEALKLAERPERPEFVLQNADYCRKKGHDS
UniProt P35348: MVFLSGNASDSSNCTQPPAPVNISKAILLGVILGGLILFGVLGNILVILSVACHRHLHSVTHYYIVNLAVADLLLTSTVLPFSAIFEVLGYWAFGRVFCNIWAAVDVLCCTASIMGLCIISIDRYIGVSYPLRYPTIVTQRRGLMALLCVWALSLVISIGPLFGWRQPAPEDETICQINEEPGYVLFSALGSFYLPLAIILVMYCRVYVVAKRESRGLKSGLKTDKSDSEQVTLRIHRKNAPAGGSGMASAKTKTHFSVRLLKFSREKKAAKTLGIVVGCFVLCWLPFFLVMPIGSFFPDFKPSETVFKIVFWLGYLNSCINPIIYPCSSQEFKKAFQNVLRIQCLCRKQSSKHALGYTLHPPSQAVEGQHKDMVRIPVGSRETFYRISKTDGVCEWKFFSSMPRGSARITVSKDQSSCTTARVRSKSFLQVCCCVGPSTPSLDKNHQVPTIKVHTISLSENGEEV
UniProt P35368, whole entry: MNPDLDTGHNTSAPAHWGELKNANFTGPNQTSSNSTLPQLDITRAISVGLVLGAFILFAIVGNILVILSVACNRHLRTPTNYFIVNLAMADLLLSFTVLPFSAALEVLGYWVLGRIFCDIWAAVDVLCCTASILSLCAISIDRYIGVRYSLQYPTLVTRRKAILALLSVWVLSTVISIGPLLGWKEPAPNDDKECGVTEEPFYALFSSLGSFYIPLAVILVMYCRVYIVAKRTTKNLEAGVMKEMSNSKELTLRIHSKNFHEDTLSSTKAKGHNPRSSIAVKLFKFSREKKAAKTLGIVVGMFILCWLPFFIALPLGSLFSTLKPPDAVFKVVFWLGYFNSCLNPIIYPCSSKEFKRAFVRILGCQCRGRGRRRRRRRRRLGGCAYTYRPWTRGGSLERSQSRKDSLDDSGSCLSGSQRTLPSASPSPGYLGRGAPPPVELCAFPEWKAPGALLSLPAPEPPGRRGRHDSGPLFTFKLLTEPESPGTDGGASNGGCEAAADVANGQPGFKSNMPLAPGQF
UniProt P08588, whole entry: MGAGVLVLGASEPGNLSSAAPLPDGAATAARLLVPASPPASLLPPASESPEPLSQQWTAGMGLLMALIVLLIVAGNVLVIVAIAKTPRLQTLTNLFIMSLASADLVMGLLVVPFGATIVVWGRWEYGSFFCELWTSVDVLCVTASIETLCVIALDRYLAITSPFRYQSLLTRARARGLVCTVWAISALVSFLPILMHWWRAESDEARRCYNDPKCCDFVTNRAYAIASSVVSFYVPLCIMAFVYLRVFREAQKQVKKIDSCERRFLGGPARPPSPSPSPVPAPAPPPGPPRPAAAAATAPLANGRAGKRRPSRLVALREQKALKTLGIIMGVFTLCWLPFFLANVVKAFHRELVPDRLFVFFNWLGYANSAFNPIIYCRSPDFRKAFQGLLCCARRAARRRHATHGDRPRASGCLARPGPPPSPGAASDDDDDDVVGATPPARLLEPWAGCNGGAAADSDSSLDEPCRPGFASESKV
UniProt Q01959, whole entry: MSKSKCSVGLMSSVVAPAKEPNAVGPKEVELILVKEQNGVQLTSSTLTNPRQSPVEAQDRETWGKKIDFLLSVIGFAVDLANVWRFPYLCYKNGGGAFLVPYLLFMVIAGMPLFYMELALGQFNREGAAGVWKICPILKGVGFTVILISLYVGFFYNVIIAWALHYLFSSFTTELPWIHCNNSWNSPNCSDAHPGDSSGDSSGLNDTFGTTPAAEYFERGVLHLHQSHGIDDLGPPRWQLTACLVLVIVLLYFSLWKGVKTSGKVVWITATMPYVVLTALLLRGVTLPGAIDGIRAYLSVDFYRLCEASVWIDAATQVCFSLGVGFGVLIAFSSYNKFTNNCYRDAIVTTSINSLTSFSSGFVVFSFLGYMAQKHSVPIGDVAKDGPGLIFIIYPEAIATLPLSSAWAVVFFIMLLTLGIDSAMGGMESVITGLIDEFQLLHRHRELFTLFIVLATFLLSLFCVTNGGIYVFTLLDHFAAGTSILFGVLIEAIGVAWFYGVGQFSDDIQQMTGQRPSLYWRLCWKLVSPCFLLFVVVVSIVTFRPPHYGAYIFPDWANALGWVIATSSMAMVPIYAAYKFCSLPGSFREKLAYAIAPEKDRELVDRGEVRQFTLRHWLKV
UniProt P20309, whole entry: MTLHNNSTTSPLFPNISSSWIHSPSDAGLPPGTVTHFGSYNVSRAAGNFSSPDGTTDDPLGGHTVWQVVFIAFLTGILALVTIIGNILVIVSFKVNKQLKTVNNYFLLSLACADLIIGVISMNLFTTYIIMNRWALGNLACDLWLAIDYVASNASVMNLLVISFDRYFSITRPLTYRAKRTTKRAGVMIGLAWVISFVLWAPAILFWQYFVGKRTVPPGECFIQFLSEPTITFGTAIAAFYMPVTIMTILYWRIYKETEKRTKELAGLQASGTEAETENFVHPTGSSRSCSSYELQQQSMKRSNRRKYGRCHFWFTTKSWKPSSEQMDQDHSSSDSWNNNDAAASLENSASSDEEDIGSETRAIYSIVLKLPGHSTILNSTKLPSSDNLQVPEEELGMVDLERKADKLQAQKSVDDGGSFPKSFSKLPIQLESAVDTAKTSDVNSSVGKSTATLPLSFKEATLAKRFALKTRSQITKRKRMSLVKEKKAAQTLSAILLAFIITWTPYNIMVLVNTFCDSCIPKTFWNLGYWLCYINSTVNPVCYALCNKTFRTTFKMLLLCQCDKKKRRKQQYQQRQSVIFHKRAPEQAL
UniProt P08912, whole entry: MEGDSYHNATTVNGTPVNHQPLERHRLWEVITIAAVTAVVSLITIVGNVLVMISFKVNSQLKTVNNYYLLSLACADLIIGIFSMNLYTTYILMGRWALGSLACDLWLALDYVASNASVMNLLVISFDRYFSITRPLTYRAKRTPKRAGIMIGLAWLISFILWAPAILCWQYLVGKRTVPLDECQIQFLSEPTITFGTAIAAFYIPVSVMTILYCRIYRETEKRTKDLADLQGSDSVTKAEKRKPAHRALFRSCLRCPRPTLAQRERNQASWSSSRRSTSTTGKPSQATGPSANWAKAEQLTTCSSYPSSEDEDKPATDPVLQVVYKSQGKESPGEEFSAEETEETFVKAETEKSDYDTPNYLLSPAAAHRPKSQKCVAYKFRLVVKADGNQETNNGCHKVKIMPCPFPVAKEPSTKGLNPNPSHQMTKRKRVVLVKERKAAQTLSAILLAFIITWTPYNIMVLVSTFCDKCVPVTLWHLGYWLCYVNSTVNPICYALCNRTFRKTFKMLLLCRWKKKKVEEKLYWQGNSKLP
UniProt P23975, whole entry: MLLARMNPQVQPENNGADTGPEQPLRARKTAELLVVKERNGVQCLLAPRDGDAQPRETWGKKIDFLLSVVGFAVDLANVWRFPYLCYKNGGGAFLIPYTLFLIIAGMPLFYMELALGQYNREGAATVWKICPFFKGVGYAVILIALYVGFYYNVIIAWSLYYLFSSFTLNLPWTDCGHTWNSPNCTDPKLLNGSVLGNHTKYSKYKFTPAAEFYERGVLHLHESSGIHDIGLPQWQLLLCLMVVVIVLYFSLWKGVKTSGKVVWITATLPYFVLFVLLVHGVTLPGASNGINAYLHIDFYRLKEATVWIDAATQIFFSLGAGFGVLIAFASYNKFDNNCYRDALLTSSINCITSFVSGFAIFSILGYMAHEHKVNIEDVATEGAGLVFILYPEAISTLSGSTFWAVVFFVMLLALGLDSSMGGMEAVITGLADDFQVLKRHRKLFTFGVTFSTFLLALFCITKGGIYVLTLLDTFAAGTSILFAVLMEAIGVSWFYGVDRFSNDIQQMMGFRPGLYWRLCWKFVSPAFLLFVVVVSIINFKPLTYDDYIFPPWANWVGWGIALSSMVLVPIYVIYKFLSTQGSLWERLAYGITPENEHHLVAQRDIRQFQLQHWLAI
UniProt P16257, whole entry: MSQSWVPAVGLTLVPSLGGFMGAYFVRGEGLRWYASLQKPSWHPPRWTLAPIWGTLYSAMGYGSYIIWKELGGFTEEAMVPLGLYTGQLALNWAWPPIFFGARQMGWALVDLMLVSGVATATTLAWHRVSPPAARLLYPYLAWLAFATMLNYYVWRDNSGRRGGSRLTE
UniProt P12390, 25-500: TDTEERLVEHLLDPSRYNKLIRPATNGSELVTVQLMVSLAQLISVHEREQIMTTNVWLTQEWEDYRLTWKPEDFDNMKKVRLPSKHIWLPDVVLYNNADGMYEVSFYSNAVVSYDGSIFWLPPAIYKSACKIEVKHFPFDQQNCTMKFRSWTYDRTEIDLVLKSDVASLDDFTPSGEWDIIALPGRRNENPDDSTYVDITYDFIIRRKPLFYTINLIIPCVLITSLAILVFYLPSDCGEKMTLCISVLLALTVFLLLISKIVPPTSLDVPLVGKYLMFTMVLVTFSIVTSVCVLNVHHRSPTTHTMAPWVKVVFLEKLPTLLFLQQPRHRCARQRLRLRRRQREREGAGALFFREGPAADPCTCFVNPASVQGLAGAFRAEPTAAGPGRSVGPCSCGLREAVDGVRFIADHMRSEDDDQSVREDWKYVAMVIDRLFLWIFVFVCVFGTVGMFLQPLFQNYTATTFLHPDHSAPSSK
UniProt P12392, 21-495: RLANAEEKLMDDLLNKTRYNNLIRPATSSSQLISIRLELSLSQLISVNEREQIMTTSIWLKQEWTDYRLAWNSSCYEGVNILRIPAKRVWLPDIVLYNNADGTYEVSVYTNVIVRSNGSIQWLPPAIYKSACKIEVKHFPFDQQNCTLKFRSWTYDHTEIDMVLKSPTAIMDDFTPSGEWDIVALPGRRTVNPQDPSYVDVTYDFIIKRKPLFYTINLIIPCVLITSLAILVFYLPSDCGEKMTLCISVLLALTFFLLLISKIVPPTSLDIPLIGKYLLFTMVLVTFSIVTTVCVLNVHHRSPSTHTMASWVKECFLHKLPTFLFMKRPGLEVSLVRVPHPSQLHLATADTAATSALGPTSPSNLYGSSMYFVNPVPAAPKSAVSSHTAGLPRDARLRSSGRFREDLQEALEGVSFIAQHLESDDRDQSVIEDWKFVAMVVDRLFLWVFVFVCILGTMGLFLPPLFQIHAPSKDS
UniProt P09483, 31-630: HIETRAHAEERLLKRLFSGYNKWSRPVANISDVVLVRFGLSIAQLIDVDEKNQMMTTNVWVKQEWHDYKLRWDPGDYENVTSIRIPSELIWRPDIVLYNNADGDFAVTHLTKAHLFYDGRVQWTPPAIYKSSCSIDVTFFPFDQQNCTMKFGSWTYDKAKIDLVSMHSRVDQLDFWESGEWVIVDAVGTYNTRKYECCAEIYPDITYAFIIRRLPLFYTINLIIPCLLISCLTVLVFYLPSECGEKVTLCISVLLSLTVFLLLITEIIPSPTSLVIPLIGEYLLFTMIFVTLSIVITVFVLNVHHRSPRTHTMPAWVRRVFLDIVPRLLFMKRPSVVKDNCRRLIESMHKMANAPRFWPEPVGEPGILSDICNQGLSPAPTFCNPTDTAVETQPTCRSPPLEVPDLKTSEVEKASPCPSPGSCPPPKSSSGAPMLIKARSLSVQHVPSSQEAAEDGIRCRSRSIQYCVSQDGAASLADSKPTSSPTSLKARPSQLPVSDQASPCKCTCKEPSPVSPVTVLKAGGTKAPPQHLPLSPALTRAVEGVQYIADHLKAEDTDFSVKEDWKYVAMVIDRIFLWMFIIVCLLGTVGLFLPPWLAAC

How the values were obtained:
sigma-1 receptor (σ1R) [1] = target: T1, sigma-1 receptor (σ1R) (Homo sapiens, UniProt Q99720); conditions: σ1, 10 μM, quadruplicate
5-HT1A = 5-HT1A (Homo sapiens, UniProt P08908); test: biochemical; conditions: read-out: Primary binding assay Inhibition, Mean %
5-HT1B = 5-HT1B (Homo sapiens, UniProt P28222); test: biochemical; conditions: read-out: Primary binding assay Inhibition, Mean %
5-HT1D = 5-HT1D (Homo sapiens, UniProt P28221); test: biochemical; conditions: read-out: Primary binding assay Inhibition, Mean %
5-HT1E = 5-HT1E (Homo sapiens, UniProt P28566); test: biochemical; conditions: read-out: Primary binding assay Inhibition, Mean %
5-HT2A = 5-HT2A (Homo sapiens, UniProt P28223); test: biochemical; conditions: read-out: Primary binding assay Inhibition, Mean %
5-HT2B = 5-HT2B (Homo sapiens, UniProt P41595); test: biochemical
5-HT2C = 5-HT2C (Homo sapiens, UniProt P28335); test: biochemical; conditions: read-out: Primary binding assay Inhibition, Mean %
5-HT3 = 5-HT3 (Homo sapiens, UniProt P46098); test: biochemical; conditions: read-out: Primary binding assay Inhibition, Mean %
5-HT5A = 5-HT5A (Homo sapiens, UniProt P47898); test: biochemical; conditions: read-out: Primary binding assay Inhibition, Mean %
5-HT6 = 5-HT6 (Homo sapiens, UniProt P50406); test: biochemical; conditions: read-out: Primary binding assay Inhibition, Mean %
5-HT7A = 5-HT7A (Homo sapiens, UniProt P34969); test: biochemical; conditions: read-out: Primary binding assay Inhibition, Mean %
α1A = α1A (Homo sapiens, UniProt P35348); test: biochemical; conditions: read-out: Primary binding assay Inhibition, Mean %
α1B = α1B (Homo sapiens, UniProt P35368); test: biochemical; conditions: read-out: Primary binding assay Inhibition, Mean %
α1D = α1D (Homo sapiens, UniProt P25100); test: biochemical; conditions: read-out: Primary binding assay Inhibition, Mean %
α2A = α2A (Homo sapiens, UniProt P08913); test: biochemical; conditions: read-out: Primary binding assay Inhibition, Mean %
α2B = α2B (Homo sapiens, UniProt P18089); test: biochemical; conditions: read-out: Primary binding assay Inhibition, Mean %
α2C = α2C (Homo sapiens, UniProt P18825); test: biochemical; conditions: read-out: Primary binding assay Inhibition, Mean %
β1 = β1 (Homo sapiens, UniProt P08588); test: biochemical; conditions: read-out: Primary binding assay Inhibition, Mean %
β2 = β2 (Homo sapiens, UniProt P07550); test: biochemical; conditions: read-out: Primary binding assay Inhibition, Mean %
β3 = β3 (Homo sapiens, UniProt P13945); test: biochemical; conditions: read-out: Primary binding assay Inhibition, Mean %
D1 = D1 (Homo sapiens, UniProt P21728); test: biochemical; conditions: read-out: Primary binding assay Inhibition, Mean %
D2 = D2 (Homo sapiens, UniProt P14416); test: biochemical; conditions: read-out: Primary binding assay Inhibition, Mean %
D3 = D3 (Homo sapiens, UniProt P35462); test: biochemical; conditions: read-out: Primary binding assay Inhibition, Mean %
D4 = D4 (Homo sapiens, UniProt P21917); test: biochemical; conditions: read-out: Primary binding assay Inhibition, Mean %
D5 = D5 (Homo sapiens, UniProt P21918); test: biochemical; conditions: read-out: Primary binding assay Inhibition, Mean %
DAT = DAT (Homo sapiens, UniProt Q01959); test: biochemical; conditions: read-out: Primary binding assay Inhibition, Mean %
DOR = DOR (Homo sapiens, UniProt P41143); test: biochemical; conditions: read-out: Primary binding assay Inhibition, Mean %
H1 = H1 (Homo sapiens, UniProt P35367); test: biochemical; conditions: read-out: Primary binding assay Inhibition, Mean %
H2 = H2 (Homo sapiens, UniProt P25021); test: biochemical; conditions: read-out: Primary binding assay Inhibition, Mean %
H3 = H3 (Homo sapiens, UniProt Q9Y5N1); test: biochemical; conditions: read-out: Primary binding assay Inhibition, Mean %
H4 = H4 (Homo sapiens, UniProt Q9H3N8); test: biochemical; conditions: read-out: Primary binding assay Inhibition, Mean %
KOR = KOR (Homo sapiens, UniProt P41145); test: biochemical; conditions: read-out: Primary binding assay Inhibition, Mean %
M1 = M1 (Homo sapiens, UniProt P11229); test: biochemical; conditions: read-out: Primary binding assay Inhibition, Mean %
M2 = M2 (Homo sapiens, UniProt P08172); test: biochemical; conditions: read-out: Primary binding assay Inhibition, Mean %
M3 = M3 (Homo sapiens, UniProt P20309); test: biochemical; conditions: read-out: Primary binding assay Inhibition, Mean %
M4 = M4 (Homo sapiens, UniProt P08173); test: biochemical; conditions: read-out: Primary binding assay Inhibition, Mean %
M5 = M5 (Homo sapiens, UniProt P08912); test: biochemical; conditions: read-out: Primary binding assay Inhibition, Mean %
MOR = MOR (Homo sapiens, UniProt P35372); test: biochemical; conditions: read-out: Primary binding assay Inhibition, Mean %
NET = NET (Homo sapiens, UniProt P23975); test: biochemical; conditions: read-out: Primary binding assay Inhibition, Mean %
PBR = PBR (Rattus norvegicus, UniProt P16257); test: biochemical; conditions: read-out: Primary binding assay Inhibition, Mean %
SERT = SERT (Homo sapiens, UniProt P31645); test: biochemical; conditions: read-out: Primary binding assay Inhibition, Mean %
sigma-1 receptor (σ1R) [2] = target: T1, sigma-1 receptor (σ1R); test: biochemical; conditions: read-out: Primary binding assay Inhibition % (mean), σ1, 10 μM, quadruplicate
α2β2 = α2β2 (Rattus norvegicus, UniProt P12389+P12390); test: biochemical; conditions: read-out: Primary binding assay Inhibition, Mean %
α2β4 = α2β4 (Rattus norvegicus, UniProt P12389+P12392); test: biochemical; conditions: read-out: Primary binding assay Inhibition, Mean %
α3β2 = α3β2 (Rattus norvegicus, UniProt P04757+P12390); test: biochemical; conditions: read-out: Primary binding assay Inhibition, Mean %
α3β4 = α3β4 (Rattus norvegicus, UniProt P04757+P12392); test: biochemical; conditions: read-out: Primary binding assay Inhibition, Mean %
α4β2 = α4β2 (Rattus norvegicus, UniProt P09483+P12390); test: biochemical; conditions: read-out: Primary binding assay Inhibition, Mean %
α4β2 (Rat Brain) = α4β2 (Rat Brain) (Rattus norvegicus, UniProt P09483+P12390); test: biochemical; conditions: read-out: Primary binding assay Inhibition, Mean %
α4β4 = α4β4 (Rattus norvegicus, UniProt P09483+P12392); test: biochemical; conditions: read-out: Primary binding assay Inhibition, Mean %

`CCCC(=O)O[C@@H]1C2=CCN3CCC[C@@H]3[C@H]2CCC1(C)C` [Compound 1, Ischnocybine A] was tested, and the “Primary binding assay Inhibition % (mean)” value (sigma-1 receptor (σ1R) [1]) was 102 ± 2%, the inhibition at 10 µM (5-HT1A) was 9.74% and the inhibition at 10 µM (5-HT1B) was 13%. It also gave an inhibition at 10 µM (5-HT1D) of 18.1%, an inhibition at 10 µM (5-HT1E) of -12.6% and an inhibition at 10 µM (5-HT2A) of 0.94%. It also gave a pKi (5-HT2B) of 5.03, an inhibition at 10 µM (5-HT2B; read-out: Primary binding assay Inhibition, Mean %) of -64.4% and an inhibition at 10 µM (5-HT2C) of -3.13%. For the same compound, the inhibition at 10 µM (5-HT3) was 4%, the inhibition at 10 µM (5-HT5A) was -14.8% and the inhibition at 10 µM (5-HT6) was -14.1%. The inhibition at 10 µM (5-HT7A) was 33.1%, the inhibition at 10 µM (α1A) was 5.63% and the inhibition at 10 µM (α1B) was -11.6%. For the same compound, the inhibition at 10 µM (α1D) was -4.04%, the inhibition at 10 µM (α2A) was 24.2% and the inhibition at 10 µM (α2B) was 15%. For the same compound, the inhibition at 10 µM (α2C) was 37.7%, the inhibition at 10 µM (β1) was -10.1% and the inhibition at 10 µM (β2) was -13.4%. For the same compound, the inhibition at 10 µM (β3) was 17.1%, the inhibition at 10 µM (D1) was 32.4% and the inhibition at 10 µM (D2) was 9.14%. For the same compound, the inhibition at 10 µM (D3) was 4.92%, the inhibition at 10 µM (D4) was 48.8% and the inhibition at 10 µM (D5) was 8.64%. For the same compound, the inhibition at 10 µM (DAT) was -2.29%, the inhibition at 10 µM (DOR) was -11.4% and the inhibition at 10 µM (H1) was 16.9%. For the same compound, the inhibition at 10 µM (H2) was 5.72%, the inhibition at 10 µM (H3) was 32.9% and the inhibition at 10 µM (H4) was 5.56%. For the same compound, the inhibition at 10 µM (KOR) was 22.2%, the inhibition at 10 µM (M1) was 1.18% and the inhibition at 10 µM (M2) was 5.74%. The inhibition at 10 µM (M3) was 17.5%, the inhibition at 10 µM (M4) was 3.34% and the inhibition at 10 µM (M5) was 5.04%. The inhibition at 10 µM (MOR) was 1.38%, the inhibition at 10 µM (NET) was 23% and the inhibition at 10 µM (PBR) was -22.2%. The inhibition at 10 µM (SERT) was 0.65%, the inhibition at 10 µM (sigma-1 receptor (σ1R) [2]) was 102% and the inhibition at 10 µM (α2β2) was 5.44%. It also gave an inhibition at 10 µM (α2β4) of -6.43%, an inhibition at 10 µM (α3β2) of -8.26% and an inhibition at 10 µM (α3β4) of -7.58%. For the same compound, the inhibition at 10 µM (α4β2) was 0.41%, the inhibition at 10 µM (α4β2 (Rat Brain)) was 0.84% and the inhibition at 10 µM (α4β4) was -7.43%.
